Assay results from patent US20230293438A1, “INJECTABLE DRUG-RELEASING MICROPOROUS ANNEALED PARTICLE SCAFFOLDS FOR TREATING MYOCARDIAL INFARCTION” (THE REGENTS OF THE UNIVERSITY OF CALIFORNIA, priority 2020, published 2023).
For at least one compound, name, drawing or mass did not settle the structure.

What was measured:
neonatal cardiomyocytes = test: Cardiomyocyte proliferation (EdU assay); assay type: cell-based, rat; conditions: drugs in medium
Procedure: Cell isolation: Primary neonatal rat cardiomyocytes and fibroblasts were isolated from the hearts of 1-2 day old Sprague-Dawley rat pups as described previously with minor modifications. Briefly, the cardiac tissue was minced and digested with 80 units/mL collagenase II (Worthington) and 0.8 mg/mL pancreatin (Sigma) at 37° C. in a water bath. Neonatal calf serum (NCS) was applied to inactivate enzymatic activity in the digested cell mixture. The cell solution was filtered through 100 µm mesh and centrifuged at 2200 rpm for 3 minutes. The cell pellets were suspended in 1 mL NCS and further separated by Percoll density gradient centrifugation. […] Cell culture and evaluation of drug effects in vitro: The drug effects on cardiomyocyte viability and proliferation were evaluated. Isolated cardiomyocytes were calculated and seeded on 0.1% gelatin-coated twenty-four well tissue culture plate with a density of 20, 000 cells/cm^2, and cultured at 37° C. in a humidified, 5% CO2 incubator overnight in DMEM/Medium 199 (4/1) containing 10% FBS, 1% NEAAs and 1% P/S. […] A live/dead kit (Invitrogen) was for cell viability assay, and images were taken using inverted microscope fluorescence microscopy (Zeiss Axio Observer Z1) to determine the cell numbers and the percentage of dead cells. […]

cardiac fibroblasts = test: Cardiac fibroblast proliferation (MTS assay); assay type: cell-based, rat; conditions: drugs in medium
Procedure: Cell isolation: Primary neonatal rat cardiomyocytes and fibroblasts were isolated from the hearts of 1-2 day old Sprague-Dawley rat pups as described previously with minor modifications. Briefly, the cardiac tissue was minced and digested with 80 units/mL collagenase II (Worthington) and 0.8 mg/mL pancreatin (Sigma) at 37° C. in a water bath. Neonatal calf serum (NCS) was applied to inactivate enzymatic activity in the digested cell mixture. The cell solution was filtered through 100 µm mesh and centrifuged at 2200 rpm for 3 minutes. The cell pellets were suspended in 1 mL NCS and further separated by Percoll density gradient centrifugation. A two-layer density gradient was formed consisting of 40.5% Percoll (GE17-0891-01, Sigma) solution in the top layer and 58.5% Percoll solution in the bottom layer. The cell suspension was layered on top of the gradient and centrifuged at 3000 rpm at room temperature for 30 minutes. […] The drug effects on cardiac fibroblast proliferation and myo-differentiation were evaluated. Fibroblasts were seeded on twenty-four well tissue culture plate with a density of 5000 cells/cm^2 and cultured overnight in DMEM containing 10% FBS and 1% P/S. On the next day, the culture medium was replaced by the fresh medium containing F and R at the determined concentrations and combinations, and the medium was changed every other day. […]

[1] = test system: neonatal cardiac fibroblasts; test: Cardiac fibroblast myo-differentiation (α-SMA / F-actin staining); assay type: cell-based, rat; conditions: drugs in medium, day 5
Procedure: Cell isolation: Primary neonatal rat cardiomyocytes and fibroblasts were isolated from the hearts of 1-2 day old Sprague-Dawley rat pups as described previously with minor modifications. Briefly, the cardiac tissue was minced and digested with 80 units/mL collagenase II (Worthington) and 0.8 mg/mL pancreatin (Sigma) at 37° C. in a water bath. Neonatal calf serum (NCS) was applied to inactivate enzymatic activity in the digested cell mixture. The cell solution was filtered through 100 µm mesh and centrifuged at 2200 rpm for 3 minutes. The cell pellets were suspended in 1 mL NCS and further separated by Percoll density gradient centrifugation. A two-layer density gradient was formed consisting of 40.5% Percoll (GE17-0891-01, Sigma) solution in the top layer and 58.5% Percoll solution in the bottom layer. […]
The drug effects on cardiac fibroblast proliferation and myo-differentiation were evaluated. Fibroblasts were seeded on twenty-four well tissue culture plate with a density of 5000 cells/cm^2 and cultured overnight in DMEM containing 10% FBS and 1% P/S. On the next day, the culture medium was replaced by the fresh medium containing F and R at the determined concentrations and combinations, and the medium was changed every other day. […]
(§1) The effects of drugs released from FR/NPs and FR/NPs-µGel particles 12 were evaluated using the methods mentioned above. […]

[2] = test system: Human umbilical vein endothelial cells (HUVECs); test: Endothelial cell proliferation (MTS assay); assay type: cell-based; conditions: drugs in medium
Procedure: The drug effects on EC proliferation and network formation were evaluated. Human umbilical vein endothelial cells (HUVECs) were seeded on 0.1% gelatin-coated 24-well plates with a density of 5, 000 cells/cm^2 and cultured overnight in DMEM containing 10% FBS and 1% P/S. On the next day, the culture medium was replaced by the fresh medium containing F and R at the determined concentrations and combinations, and the medium was changed every other day. MTS cell proliferation assay was performed on day 1, 3 and 5. In addition, the ECs network formation was examined on growth factor reduced Matrigel according to the manufacturer's instructions (cat# CB-40230C, Thermo Fisher Scientific). Briefly, 24-well plates were coated with Matrigel. ECs were digested and plated onto a layer of Matrigel at a density of 3×10^5 cells/well in M199 medium containing 1% FBS and […], with the addition of F and R. Vascular endothelial growth factor (VEGF, 20 ng/mL) was used as a positive control. After 16 hours of culture, cells were stained with calcein acetoxymethyl ester (calcein-AM) and observed with an inverted fluorescent microscope. The number of tubular structures, junctions and meshes were analyzed by Image J with the Angiogenesis Analyzer plugin (n = 4-6 per group).

[3] = test system: Human umbilical vein endothelial cells (HUVECs); test: Endothelial cell tubule network formation on Matrigel; assay type: cell-based; conditions: drugs in medium, 16 hours
Procedure: The drug effects on EC proliferation and network formation were evaluated. Human umbilical vein endothelial cells (HUVECs) were seeded on 0.1% gelatin-coated 24-well plates with a density of 5, 000 cells/cm^2 and cultured overnight in DMEM containing 10% FBS and 1% P/S. On the next day, the culture medium was replaced by the fresh medium containing F and R at the determined concentrations and combinations, and the medium was changed every other day. MTS cell proliferation assay was performed on day 1, 3 and 5. In addition, the ECs network formation was examined on growth factor reduced Matrigel according to the manufacturer’s instructions (cat# CB-40230C, Thermo Fisher Scientific). Briefly, 24-well plates were coated with Matrigel. ECs were digested and plated onto a layer of Matrigel at a density of 3×10^5 cells/well in M199 medium containing 1% FBS and 1% P/S, with the addition of F and R. Vascular endothelial growth factor (VEGF, 20 ng/mL) was used as a positive control. After 16 hours of culture, cells were stained with calcein acetoxymethyl ester (calcein-AM) and observed with an inverted fluorescent microscope. The number of tubular structures, junctions and meshes were analyzed by Image J with the Angiogenesis Analyzer plugin (n = 4-6 per group).
as §1

C=C[C@@]1(C)CC(=O)[C@]2(O)[C@@]3(C)[C@@H](O)CCC(C)(C)[C@@H]3[C@H](O)[C@H](OC(C)=O)[C@@]2(C)O1 [F, Forskolin]
proliferation of neonatal cardiomyocytes, times as many cells as the control (neonatal cardiomyocytes): three
fibroblast proliferation (cardiac fibroblasts): enhance fibroblast proliferation
myo-differentiation of cardiac fibroblasts [1]: could prevent myo-differentiation of cardiac fibroblasts
EC proliferation [2]: dose-dependent effects to enhance EC proliferation
EC network formation [3]: increased
